Measured values: PubChem BioAssay AID905 (National Center for Advancing Translational Sciences (NCATS), 2007)
Several values for one entry are separate records, joined by “and”; a condition that tells them apart may be missing. Where a call stands in place of a potency, no number is given. Equal entries are not always repeated. This list was built around the results that the source calls inconclusive (neither active nor inactive); the mix of calls is not that of the screen. Potencies beside an inconclusive call are fits to weak or partial responses and may not hold up. Activity calls are given as the source filed them. Calls follow the shape of the dose curve; as a rule, active = well fitted curve in the direction sought with a large enough effect; inconclusive = small, poorly fitted or top-dose-only effect, or another doubt; inactive = no such curve, though single readings can be large or run the other way.

Assay: Cell Viability - CRE-beta lactamase CHO cell - 24 hr assay
Conditions: CRE-bla CHO viability, ATP luminescence; series mostly up to 46.1 µM
Source text: NIH Molecular Libraries Screening Centers Network [MLSCN] NIH Chemical Genomics Center [NCGC] National Institutes of Environmental Health Sciences [NIEHS] National Toxicology Program [NTP] MLSCN Grant: 1X01MH079867-01 Assay Provider: Marshall W. Nirenberg, U.S. National Heart, Lung and Blood Institute NCGC Assay Overview: We have developed a 1536-well cell-based assay for quantitative high throughput screening (qHTS) against a number of cell lines to determine in vitro cytotoxicity of small molecules. This particular assay uses CRE-bla CHO cell line from Invitrogen.
NCGC Assay Protocol Summary: The CellTiter-Glo luminescent cell viability assay (Promega) is a homogeneous method to measure the number of viable cells in culture. The end point readout of this assay is based on quantitation of intracellular ATP, an indicator of metabolic activity, using the luciferase reaction. Luciferase catalyzes the oxidation of beetle Luciferin to oxyluciferin and light in the presence of ATP. The luminescent signal is proportional to amount of ATP present. Using the CellTiter-Glo luminescent cell viability assay, the amount of cellular ATP was measured in the CRE-bla CHO cell line with complete culture medium following compound treatment for 24 hours. The assay was performed in opaque white Kalypsys 1536-well plates. In the screen, tamoxifen was used as positive control. The selected compounds were measured for their ability to cause acute toxicity in the cell line, as reflected by a decrease in intracellular ATP levels, in a concentration-dependent manner. Data were normalized to the controls for basal activity (DMSO only) and 100% inhibition (100 uM tamoxifen). AC50 values were determined from concentration-response data modeled with the standard Hill equation. NCGC Assay Protocol Summary 1. Reagent; 5 uL; 2000 CHO cells/well 2. Time; overnight; 37 C incubation 3. Compounds; 23 nL; 5.9 nM to 46 uM 4. Controls; 23 nL; Tamoxifen 4.5 nM to 92 uM 5. […] Detection; Luminescence; Viewlux plate reader Keywords: cell viability, cytotoxicity, CHO cell line, luminescence, MLSMR, MLSCN, NIH Roadmap, qHTS, NCGC
In the case of `CC(C)C(=O)N1CCN(CCN=Cc2c(O)n(C)c(=O)n(C)c2=O)CC1`, the Potency is reported as “inactive”.
For `COc1ccc(Cc2nccc3cc(OC)c(OC)cc23)cc1OC`, the Potency was inconclusive: 10 µM [inhibitor, partial curve] and inconclusive: 15.8 µM [inhibitor, partial curve].
In the case of `CN(C)C=C1C(=O)N(C2CCCCC2)C(=O)N(C2CCCCC2)C1=O`, the Potency is reported as “inactive”.
